Source: paper PMC13265731, “In vitro reconstitution defines the mechanistic basis of HSET motor activity regulation by IntraFlagellar Transport proteins” (Communications Biology, 2026)
Results are given in words; binding and its absence hold for the method and conditions named. Some binding calls cover weakened binding; strength is not graded here. Tags and fused reporters may be left off the sequences shown.

Molecular target: T1, GFP-HSET (full-length N-terminal hexa-histidine-tagged GFP-HSET) (human) (UniProt Q9BW19)
T1 sequence: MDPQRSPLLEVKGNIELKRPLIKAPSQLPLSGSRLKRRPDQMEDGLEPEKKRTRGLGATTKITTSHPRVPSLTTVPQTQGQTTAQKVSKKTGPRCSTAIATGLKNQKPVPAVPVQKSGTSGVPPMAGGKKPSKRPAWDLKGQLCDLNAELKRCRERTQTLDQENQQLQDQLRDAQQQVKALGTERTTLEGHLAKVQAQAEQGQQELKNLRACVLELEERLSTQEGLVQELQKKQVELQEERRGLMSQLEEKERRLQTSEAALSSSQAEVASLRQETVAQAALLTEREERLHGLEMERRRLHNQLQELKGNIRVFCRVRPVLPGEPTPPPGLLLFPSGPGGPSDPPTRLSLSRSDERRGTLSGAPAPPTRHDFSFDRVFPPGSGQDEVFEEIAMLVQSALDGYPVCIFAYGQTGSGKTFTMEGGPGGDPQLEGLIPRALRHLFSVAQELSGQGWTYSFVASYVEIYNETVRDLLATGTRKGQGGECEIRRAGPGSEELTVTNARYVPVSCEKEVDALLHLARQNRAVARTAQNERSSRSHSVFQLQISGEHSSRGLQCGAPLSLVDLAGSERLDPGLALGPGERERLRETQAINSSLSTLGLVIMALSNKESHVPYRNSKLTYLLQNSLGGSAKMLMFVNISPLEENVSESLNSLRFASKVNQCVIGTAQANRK
Assay: pull-down; 4 µg GFP-HSET (or GFP) on 10 µl GFP-trap beads; IFT proteins 0.25 µM in 20 mM Hepes pH 7.2, 150 mM NaCl, 2 mM MgCl2, 1 mM DTT, 2 h at RT; 4 washes; IFT proteins and SNAP seen by their SNAP-surface 647 label; both purified

B1: SNAP-IFT46 (protein, UniProt Q9NQC8 1-304)
chain: MADNSSDECEEENNKEKKKTSQLTPQRGFSENEDDDDDDDDSSETDSDSDDDDEEHGAPLEGAYDPADYEHLPVSAEIKELFQYISRYTPQLIDLDHKLKPFIPDFIPAVGDIDAFLKVPRPDGKPDNLGLLVLDEPSTKQSDPTVLSLWLTENSKQHNITQHMKVKSLEDAEKNPKAIDTWIESISELHRSKPPATVHYTRPMPDIDTLMQEWSPEFEELLGKVSLPTAEIDCSLAEYIDMICAILDIPVYKSRIQSLHLLFSLYSEFKNSQHFKALAEGKKAFTPSSNSTSQAGDMETLTFS
modifications: SNAP-Surface Alexa Fluor 647 on the SNAP tag
binding: binds weakly
